From PMC6271632, “Tryptophan as a Probe to Study the Anticancer Mechanism of Action and Specificity of α-Helical Anticancer Peptides” (Molecules, 2014)

Legend:
[1] = Isothermal titration calorimetry with DMPC LUVs; type: binding; conditions: ITC
Protocol: The interaction of the peptides PNW and PCW with phospholipids was investigated using ITC at 25 °C, in which DMPC or DMPS LUVs were injected into an ITC cell containing peptide solutions of PNW or PCW. Based on the tryptophan fluorescence and quenching experiments, PNW and PCW could cover the trend of peptide-membrane interaction, thus, PMW was not included in the liposome experiments. The interaction of peptides with phospholipid bilayer membrane is entropy-driven. […] It is clear to see that the endothermic heat flow decreased with the increase of the number of injections and the free peptide concentration in the cell decreased simultaneously. The endothermic binding reaction of peptide PNW ceased after 20 injections, when all of peptide in bulk bound to DMPC LUVs (Figure 4A) and the further addition of DMPC LUVs caused dilution heat. However, the endothermic binding reaction of PCW ceased after 22 injections.
(§1) To mimic cancer cell and normal cell membranes, desired phospholipid powders were mixtured under certain ratios. Phospholipid mixtures were dissolved in chloroform, dried by N2 flow, and then vacuumed overnight to remove the trace of organic solvents. The lipids were hydrated in 10 mM HEPES and 150 mM NaCl buffer (pH 7.4) and extensively vortexed above the phase-transition temperature of phospholipid, obtaining multilamellar large vesicles (MLVs). To obtain large unilamellar vesicles (LUVs), the MLVs was exposed to five freeze-thaw cycles and pass 21 times through two polycarbonate membrane (0.1 μm) with a mini-extruder above the phase-transition temperature of phospholipids. The phospholipid concentrations were determined by phosphorus analysis.
(§2) The affinity of peptides with LUV liposomes were detected by a Nano ITC2G isothermal titration calorimeter (TA Instrument Corp., New Castle, DE, USA) at 25 °C, under HEPES buffer condition (10 mM HEPES, and 150 mM NaCl (pH 7.0)). To avoid air bubbles, peptides and LUV solutions were degassed under vacuum 500 mmHg, for 14 min before using. Titrations were performed by injecting aliquots of LUVs (lipid concentrations of DMPC and DMPS were 14.75 mM and 14.25 mM, respectively) into the calorimeter cell containing peptide solution (peptide concentrations varying between 25 and 50 μM) with 6 min waiting time between injections and 300 rpm of stirring rate. Data analysis was performed using the NanoAnalyze program provided by TA Instruments. Noises were controlled by the deduction of buffer signals in the presence or absence of liposomes. The vesicles sizes of peptide-exposed lipids are similar in DMPC and DMPS solutions; in contrast, the vesicles sizes of peptide-free lipids of DMPC and DMPS are similar to each other, but in comparatively smaller sizes than peptide-exposed lipids, respectively (data not shown).

[2] = Isothermal titration calorimetry with DMPS LUVs; type: binding; conditions: ITC
Protocol: as §1, §2

[3] = Tryptophan fluorescence with normal LUVs; conditions: normal LUVs vs HEPES buffer; 2 μM peptide, 0.1 mM LUVs, pH 7.4, excitation 280 nm
[4] = Tryptophan fluorescence with cancer LUVs; conditions: cancer LUVs vs Hepes buffer; 2 μM peptide, 0.1 mM LUVs, pH 7.4, excitation 280 nm

CC[C@H](C)[C@H](NC(=O)[C@H](CCCCN)NC(C)=O)C(=O)N[C@@H](CCCCN)C(=O)N[C@@H](CO)C(=O)N[C@@H](Cc1ccccc1)C(=O)N[C@@H](CC(C)C)C(=O)N[C@@H](CCCCN)C(=O)N[C@H](C(=O)N[C@@H](Cc1ccccc1)C(=O)N[C@@H](CCCCN)C(=O)N[C@@H](CO)C(=O)N[C@@H](CC(C)C)C(=O)N[C@@H](CCCCN)C(=O)N[C@@H](CCCCN)C(=O)N[C@H](C(=O)N[C@H](C(=O)N[C@@H](CC(C)C)C(=O)N[C@@H](Cc1c[nH]cn1)C(=O)N[C@H](C(=O)N[C@@H](CC(C)C)C(=O)N[C@@H](CC(C)C)C(=O)N[C@@H](CCCCN)C(=O)N[C@@H](C)C(=O)N[C@@H](Cc1c[nH]c2ccccc12)C(=O)N[C@@H](CO)C(=O)N[C@@H](CO)C(N)=O)[C@@H](C)O)C(C)C)[C@@H](C)O)[C@@H](C)O [PCW]
N (binding stoichiometry) ([1]; 25 °C): 58.60 | ∆H (total binding enthalpy) ([1]; 25 °C): 10.93 kJ/M | ∆S (entropy of binding) ([1]; 25 °C): 105.90 J M^−1K^−1 | T∆S ([1]; 298.15 K): 31.57 kJ/M | ∆G (free energy of binding) ([1]; ΔG = ΔH − TΔS): -20.64 kJ/M | N (binding stoichiometry) ([2]; 25 °C): 18.96 | ∆H (total binding enthalpy) ([2]; 25 °C): -3.20 kJ/M | ∆S (entropy of binding) ([2]; 25 °C): 70.58 J M^−1K^−1 | T∆S ([2]; 298.15 K): 21.04 kJ/M | ∆G (free energy of binding) ([2]; ΔG = ΔH − TΔS): -24.24 kJ/M | Blue shift in emission wavelength maxima [3]: 0 nm | Blue shift in emission wavelength maxima [4]: 6 nm | Intensity change (Trp fluorescence) [4]: 2

CC[C@H](C)[C@H](NC(=O)[C@H](C)NC(=O)[C@H](CCCCN)NC(=O)[C@H](CC(C)C)NC(=O)[C@H](CC(C)C)NC(=O)[C@@H](NC(=O)[C@H](Cc1c[nH]cn1)NC(=O)[C@H](CC(C)C)NC(=O)[C@@H](NC(=O)[C@@H](NC(=O)[C@H](CCCCN)NC(=O)[C@H](CCCCN)NC(=O)[C@H](Cc1c[nH]c2ccccc12)NC(=O)[C@H](CO)NC(=O)[C@H](CCCCN)NC(=O)[C@H](Cc1ccccc1)NC(=O)[C@@H](NC(=O)[C@H](CCCCN)NC(=O)[C@H](CC(C)C)NC(=O)[C@H](Cc1ccccc1)NC(=O)[C@H](CO)NC(=O)[C@H](CCCCN)NC(=O)[C@@H](NC(=O)[C@H](CCCCN)NC(C)=O)[C@@H](C)CC)[C@@H](C)O)[C@@H](C)O)C(C)C)[C@@H](C)O)C(=O)N[C@@H](CO)C(=O)N[C@@H](CO)C(N)=O [PMW]
Blue shift in emission wavelength maxima [3]: 3 nm | Blue shift in emission wavelength maxima [4]: 9 nm | Intensity change (Trp fluorescence) [4]: 38
